{"source": "PubChem BioAssay AID256", "about": "(DTP/NCI, 2004)", "test_system": "CD2F1 mice, L1210 leukemia ip, survival T/C", "experiment": "NCI In Vivo Anticancer Drug Screen. Data for tumor model L1210 Leukemia (intraperitoneal) in CD2F1 (CDF1) mice", "conditions": "T/C endpoint: mean survival time, higher T/C = longer survival", "how_it_was_run": "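In this screen, transplantable tumors were grown in mice given either the compound or its vehicle. Results were expressed as the treated measurement relative to the control measurement.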", "key": {"[1]": {"conditions": "dose: 400.0 mg/kg/injection, schedule: Q04DX003 (ip), vehicle: saline with Tween-80"}, "[2]": {"conditions": "dose: 100.0 mg/kg/injection, schedule: Q04DX003 (ip), vehicle: saline"}, "[3]": {"conditions": "dose: 200.0 mg/kg/injection, schedule: Q04DX003 (ip), vehicle: saline"}, "[4]": {"conditions": "dose: 400.0 mg/kg/injection, schedule: Q04DX003 (ip), vehicle: saline"}, "[5]": {"conditions": "dose: 300.0 mg/kg/injection, schedule: Q01DX001 (ip), vehicle: saline"}, "[6]": {"conditions": "dose: 100.0 mg/kg/injection, schedule: Q01DX009 (ip), vehicle: saline"}}, "note": "The list does not hold the whole screen: it is rich in T/C values a quarter to a half above the control, in often repeated tests (any T/C) and in doses without a T/C. Further doses and runs are listed elsewhere. T/C: endpoint of the treated group in % of that of the vehicle group. Some entries give survivors of the animals treated and no T/C: the source files T/C as zero there, which appears to mark a toxic dose or a test without result, not a measured value. Some survivor counts are full or nearly so, which does not show that the dose was tolerated: the source hardly ever lists a survival T/C far under the control, and the zero likely stands for such cases as well. Counts of survivors are from the toxicity check (mostly the fifth day) where no day follows; animals may have died later. Schedule codes are those of the source, read here as Q, the interval in days (D) or hours (H), X, the number of doses. For survival time, the PubChem record calls one and a half times the control and up active, and a quarter to a half above the control has no call in these data; cut-offs in other NCI protocols can differ. Some schedules carry Z or #; the key to these is not given. Some T/C values carry the count of animals alive at the toxicity check (mostly the fifth day); without a count, all were alive then."}
{"smiles": "Cc1ccc(CNc2cc(C)ccn2)cc1", "values": [{"measurement": "survivor count", "setting": "[1]", "result": "6 of 6"}]}
{"smiles": "N=C1N(c2ccccc2)CCN1c1ccccc1", "values": [{"measurement": "survivor count", "setting": "dose: 25.0 mg/kg/injection, schedule: Q04DX003 (ip), vehicle: saline with Tween-80", "result": "2 of 3"}, {"measurement": "survivor count", "setting": "[2]", "result": "0 of 3"}, {"measurement": "survivor count", "setting": "[3]", "result": "0 of 3"}, {"measurement": "survivor count", "setting": "[4]", "result": "0 of 3"}]}
{"smiles": "CCOC(=O)CCC(NC(=O)OCCNCCCl)C(=O)OCC", "note": "(centres undefined)", "values": [{"measurement": "T/C", "setting": "dose: 640.0 mg/kg/injection, schedule: Q01DX Z (ip), vehicle: saline", "result": "131 % of control"}]}
{"smiles": "CCC(C)CC(N)O", "note": "(centres undefined)", "values": [{"measurement": "survivor count", "setting": "[5]", "result": "3 of 6"}]}
{"smiles": "CC(CO)CCC1OC2CC3C4CCC5CC(O)CCC5(C)C4CCC3(C)C2C1C", "note": "(centres undefined)", "values": [{"measurement": "survivor count", "setting": "dose: 400.0 mg/kg/injection, schedule: Q01DX001 (ip), vehicle: saline with Tween-80", "result": "6 of 6"}]}
{"smiles": "C1N2CN3CN1CN(C2)C3.[Cl][Pt][Cl]", "values": [{"measurement": "survivor count", "setting": "dose: 200.0 mg/kg/injection, schedule: Q04DX003 (ip), vehicle: saline with Tween-80", "result": "0 of 6"}, {"measurement": "survivor count", "setting": "[1]", "result": "0 of 6"}]}
{"smiles": "Cl/C=C\\C[N+]12CN3CN(CN(C3)C1)C2", "values": [{"measurement": "survivor count", "setting": "[3]", "result": "2 of 6"}, {"measurement": "survivor count", "setting": "[4]", "result": "0 of 6"}]}
{"smiles": "NC(Cc1cccc(NP(=S)(N2CC2)N2CC2)c1)C(=O)O", "note": "(centres undefined)", "values": [{"measurement": "T/C", "setting": "[3]", "result": "129 % of control [5 of 6 alive]"}, {"measurement": "survivor count", "setting": "dose: 400.0 mg/kg/injection, schedule: Q01DX009 (ip), vehicle: saline", "result": "6 of 6"}, {"measurement": "T/C", "setting": "[4]", "result": "142 % of control"}]}
{"smiles": "CC(=O)C=C(C)[O][Tl]", "values": [{"measurement": "survivor count", "setting": "dose: 150.0 mg/kg/injection, schedule: Q01DX001 (ip), vehicle: saline", "result": "0 of 6"}, {"measurement": "survivor count", "setting": "[5]", "result": "0 of 6"}]}
{"smiles": "CCC(=O)OC1=CC(=O)c2ccccc2C1=O", "values": [{"measurement": "survivor count", "setting": "[5]", "result": "3 of 6"}]}
{"smiles": "CCOC(=O)/C(C#N)=C1\\CCCc2ccccc21", "values": [{"measurement": "survivor count", "setting": "dose: 400.0 mg/kg/injection, schedule: Q04DX003 (ip), vehicle: acetone", "result": "1 of 6"}]}
{"smiles": "C=CCOCC(O)CNCCCC", "note": "(centres undefined)", "values": [{"measurement": "survivor count", "setting": "[6]", "result": "0 of 3"}, {"measurement": "survivor count", "setting": "dose: 200.0 mg/kg/injection, schedule: Q01DX009 (ip), vehicle: saline", "result": "0 of 3"}]}
{"smiles": "COc1ccc([N+]2=Cc3cc(OC)c(OC)cc3CC2)cc1OC", "values": [{"measurement": "survivor count", "setting": "dose: 200.0 mg/kg/injection, schedule: Q01DX009 (ip), vehicle: water", "result": "3 of 6"}]}
{"smiles": "CN1C=c2c3c(ccc2=C2C=CC4C=C5OCOC5=CC4=C21)OCO3", "note": "(centres undefined)", "values": [{"measurement": "survivor count", "setting": "[2]", "result": "5 of 6"}, {"measurement": "survivor count", "setting": "[3]", "result": "0 of 6"}, {"measurement": "survivor count", "setting": "[4]", "result": "0 of 6"}]}
{"smiles": "OC(CC(CC(O)(C(F)(F)F)C(F)(F)F)=NNc1ccccc1)(C(F)(F)F)C(F)(F)F", "values": [{"measurement": "survivor count", "setting": "dose: 100.0 mg/kg/injection, schedule: Q01DX009 (ip), vehicle: saline with Tween-80", "result": "3 of 6"}]}
{"smiles": "O=C1C=CC(=O)C(Br)C1Br", "note": "(centres undefined)", "values": [{"measurement": "survivor count", "setting": "[5]", "result": "1 of 6"}]}
{"smiles": "CN(C)C(=S)NN", "values": [{"measurement": "survivor count", "setting": "dose: 12.5 mg/kg/injection, schedule: Q01DX001 (ip), vehicle: saline", "result": "3 of 6"}, {"measurement": "survivor count", "setting": "dose: 25.0 mg/kg/injection, schedule: Q01DX001 (ip), vehicle: saline", "result": "0 of 6"}, {"measurement": "survivor count", "setting": "dose: 50.0 mg/kg/injection, schedule: Q01DX001 (ip), vehicle: saline", "result": "0 of 6"}]}
{"smiles": "CN1CC2C(O)CCC1CC2O", "note": "(centres undefined)", "values": [{"measurement": "survivor count", "setting": "dose: 400.0 mg/kg/injection, schedule: Q04DX002 (ip), vehicle: saline", "result": "0 of 3"}]}
{"smiles": "CC(C)=CCC/C(C)=C/CN", "values": [{"measurement": "survivor count", "setting": "dose: 50.0 mg/kg/injection, schedule: Q01DX009 (ip), vehicle: saline", "result": "4 of 6"}, {"measurement": "survivor count", "setting": "[6]", "result": "2 of 6"}, {"measurement": "survivor count", "setting": "[3]", "result": "1 of 6"}, {"measurement": "survivor count", "setting": "[4]", "result": "0 of 6"}]}
{"smiles": "O=C(OCC1OC(n2cnc3c(=S)nc[nH]c32)C(OC(=O)c2ccc([N+](=O)[O-])cc2)C1OC(=O)c1ccc([N+](=O)[O-])cc1)c1ccc([N+](=O)[O-])cc1", "note": "(centres undefined)", "values": [{"measurement": "survivor count", "setting": "dose: 200.0 mg/kg/injection, schedule: Q01DX009 (ip), vehicle: saline with Tween-80", "result": "5 of 6"}, {"measurement": "survivor count", "setting": "dose: 300.0 mg/kg/injection, schedule: Q01DX009 (ip), vehicle: saline with Tween-80", "result": "2 of 6"}]}
{"smiles": "O=C(Nc1ccc2ccccc2c1-c1c(NC(=O)c2ccccc2)ccc2ccccc12)c1ccccc1", "values": [{"measurement": "survivor count", "setting": "dose: 200.0 mg/kg/injection, schedule: Q01DX001 (ip), vehicle: saline with Tween-80", "result": "6 of 6"}]}
{"smiles": "C=CS(C=C)=NS(=O)(=O)c1ccc(C)cc1", "values": [{"measurement": "survivor count", "setting": "dose: 50.0 mg/kg/injection, schedule: Q01DX009 (ip), vehicle: Klucel (hydroxypropylcellulose) (HPC)", "result": "0 of 6"}]}
